From publication PMC12723238, “Structural basis for T-cell intracellular antigen-1 amyloid fibril formation revealed by cryo-electron microscopy” (PNAS Nexus, 2025)
These are yes or no findings as the source states them, for the method shown.

Target: TIA-1 deletion mutant lacking the fibril core region (residues 336-360) (human) (UniProt P31483)
Assay: thioflavin T fluorescence + negative-stain TEM; fibril formation of recombinant full-length TIA-1 from phase-separated condensates, with single-stranded DNA TC5, physiological buffer, 30 °C, up to 3 days; both purified

B1: TIA-1 deletion mutant lacking the fibril core region (residues 336-360) (protein, UniProt P31483)
chain: MEDEMPKTLYVGNLSRDVTEALILQLFSQIGPCKNCKMIMDTAGNDPYCFVEFHEHRHAAAALAAMNGRKIMGKEVKVNWATTPSSQKKDTSSSTVVSTQRSQDHFHVFVGDLSPEITTEDIKAAFAPFGRISDARVVKDMATGKSKGYGFVSFFNKWDAENAIQQMGGQWLGGRQIRTNWATRKPPAPKSTYESNTKQLSYDEVVNQSSPSNCTVYCGGVTSGLTEQLMRQTFSPFGQIMEIRVFPDKGYSFVRFNSHESAAHAIVSVNGTTIEGHVVKCYWGKETLDMINPVQQQNQIGYPQPYGQWGQWYGNAQQIGQYMPNGWQVPAYGMYQPPQGQNGSMLPNQPSGYRVAGYETQ
  binding: no binding
